Results are given in words; binding and its absence hold for the method and conditions named. Some results given as binding are weak or reduced against the parent protein; the word gives no strength. For part of these data: Sequences can lack the tags named with a protein.
Key:
[1] = target: Sin3 (residues 214–1536) (Saccharomyces cerevisiae) (UniProt P22579); test: SEC-MALS; 100 μL Rpd3S at 40 μM, Superdex 200 5/150, 20 mM Tris-HCl pH 7.5, 150 mM NaCl; both purified
[2] = target: T1, Rco1 (Saccharomyces cerevisiae) (UniProt Q04779); test: cryo-EM structure; purified apo Rpd3S complex; 3D map of 3.5 Å; both purified
T1 sequence: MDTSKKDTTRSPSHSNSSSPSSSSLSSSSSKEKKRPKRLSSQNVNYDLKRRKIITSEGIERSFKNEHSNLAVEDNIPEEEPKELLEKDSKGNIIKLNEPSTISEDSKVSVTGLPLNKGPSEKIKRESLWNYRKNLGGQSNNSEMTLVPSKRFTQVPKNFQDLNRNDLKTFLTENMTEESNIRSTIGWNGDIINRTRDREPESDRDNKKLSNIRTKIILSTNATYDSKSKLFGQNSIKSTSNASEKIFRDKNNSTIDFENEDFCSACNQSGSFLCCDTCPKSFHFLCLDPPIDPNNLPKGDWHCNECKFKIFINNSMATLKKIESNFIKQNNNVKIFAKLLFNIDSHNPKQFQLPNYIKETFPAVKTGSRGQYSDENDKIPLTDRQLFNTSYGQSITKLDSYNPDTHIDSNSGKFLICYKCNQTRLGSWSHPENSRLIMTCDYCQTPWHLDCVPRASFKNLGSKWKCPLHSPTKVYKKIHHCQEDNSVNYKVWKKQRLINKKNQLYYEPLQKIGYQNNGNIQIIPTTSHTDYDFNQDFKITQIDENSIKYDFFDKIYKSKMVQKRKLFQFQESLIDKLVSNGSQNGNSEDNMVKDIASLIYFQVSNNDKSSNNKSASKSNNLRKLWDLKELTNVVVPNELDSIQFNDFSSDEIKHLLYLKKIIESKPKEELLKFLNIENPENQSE

Sequences of proteins named here, by UniProt entry; tags and fusion partners are left off. Residues count along the entry.
UniProt P22579, residues 214-1536: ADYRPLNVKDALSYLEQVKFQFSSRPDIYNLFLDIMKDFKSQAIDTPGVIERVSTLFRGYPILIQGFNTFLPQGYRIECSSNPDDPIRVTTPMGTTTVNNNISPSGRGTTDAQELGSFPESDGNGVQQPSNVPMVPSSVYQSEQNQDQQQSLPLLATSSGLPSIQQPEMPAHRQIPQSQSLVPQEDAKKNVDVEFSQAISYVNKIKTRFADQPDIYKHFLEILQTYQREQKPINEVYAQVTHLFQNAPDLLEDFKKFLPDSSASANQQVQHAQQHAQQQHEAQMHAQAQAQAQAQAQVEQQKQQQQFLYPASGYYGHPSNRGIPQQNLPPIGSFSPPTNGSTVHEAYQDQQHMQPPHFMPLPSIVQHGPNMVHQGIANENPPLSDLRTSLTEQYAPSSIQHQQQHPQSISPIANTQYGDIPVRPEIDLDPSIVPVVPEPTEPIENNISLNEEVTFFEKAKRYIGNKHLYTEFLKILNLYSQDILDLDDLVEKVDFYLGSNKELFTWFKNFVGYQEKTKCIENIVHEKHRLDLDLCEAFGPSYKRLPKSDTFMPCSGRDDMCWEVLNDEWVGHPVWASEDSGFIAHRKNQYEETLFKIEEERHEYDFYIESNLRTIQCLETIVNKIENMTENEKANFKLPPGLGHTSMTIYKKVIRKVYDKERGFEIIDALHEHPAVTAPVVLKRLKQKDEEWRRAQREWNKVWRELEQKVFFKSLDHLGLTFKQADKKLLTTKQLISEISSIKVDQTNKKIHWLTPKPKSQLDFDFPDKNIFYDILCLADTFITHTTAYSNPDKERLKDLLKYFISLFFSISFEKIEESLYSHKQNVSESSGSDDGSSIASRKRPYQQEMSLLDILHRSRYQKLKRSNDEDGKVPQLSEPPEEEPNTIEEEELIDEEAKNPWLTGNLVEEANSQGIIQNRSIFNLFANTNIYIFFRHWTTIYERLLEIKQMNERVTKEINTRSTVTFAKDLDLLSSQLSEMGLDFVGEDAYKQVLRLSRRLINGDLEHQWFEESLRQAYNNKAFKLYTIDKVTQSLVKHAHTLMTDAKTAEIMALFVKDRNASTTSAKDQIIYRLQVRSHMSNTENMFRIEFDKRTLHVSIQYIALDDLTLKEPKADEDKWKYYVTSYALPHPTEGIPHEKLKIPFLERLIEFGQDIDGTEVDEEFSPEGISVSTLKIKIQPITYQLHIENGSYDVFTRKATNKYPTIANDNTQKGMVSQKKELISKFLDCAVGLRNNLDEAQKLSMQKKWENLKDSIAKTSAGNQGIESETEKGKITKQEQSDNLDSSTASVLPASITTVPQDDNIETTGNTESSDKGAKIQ
UniProt Q12432: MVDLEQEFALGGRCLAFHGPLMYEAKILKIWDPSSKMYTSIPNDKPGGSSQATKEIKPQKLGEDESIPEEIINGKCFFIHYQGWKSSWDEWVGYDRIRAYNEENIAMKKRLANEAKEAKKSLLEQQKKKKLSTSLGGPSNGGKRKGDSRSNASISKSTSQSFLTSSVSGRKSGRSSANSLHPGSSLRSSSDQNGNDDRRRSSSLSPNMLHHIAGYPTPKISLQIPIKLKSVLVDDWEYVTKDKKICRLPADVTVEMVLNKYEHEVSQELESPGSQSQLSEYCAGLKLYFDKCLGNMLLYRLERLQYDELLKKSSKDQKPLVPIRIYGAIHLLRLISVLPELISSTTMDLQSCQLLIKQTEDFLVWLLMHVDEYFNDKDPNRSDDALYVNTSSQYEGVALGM

[3] = target: Sin3 (residues 214–1536) (Saccharomyces cerevisiae) (UniProt P22579); test: cross-linking; XL-MS: purified apo Rpd3S, 1.5 mg/mL in HEPES buffer, 1 mM BS3, room temperature, 30 min; LC-MS/MS, pLink2; both purified
[4] = target: Sin3 (residues 214–1536) (Saccharomyces cerevisiae) (UniProt P22579); test: cryo-EM structure; purified apo Rpd3S complex; 3D map of 3.5 Å; both purified
[5] = target: T2, Rpd3 (Saccharomyces cerevisiae) (UniProt P32561); test: as above
T2 sequence: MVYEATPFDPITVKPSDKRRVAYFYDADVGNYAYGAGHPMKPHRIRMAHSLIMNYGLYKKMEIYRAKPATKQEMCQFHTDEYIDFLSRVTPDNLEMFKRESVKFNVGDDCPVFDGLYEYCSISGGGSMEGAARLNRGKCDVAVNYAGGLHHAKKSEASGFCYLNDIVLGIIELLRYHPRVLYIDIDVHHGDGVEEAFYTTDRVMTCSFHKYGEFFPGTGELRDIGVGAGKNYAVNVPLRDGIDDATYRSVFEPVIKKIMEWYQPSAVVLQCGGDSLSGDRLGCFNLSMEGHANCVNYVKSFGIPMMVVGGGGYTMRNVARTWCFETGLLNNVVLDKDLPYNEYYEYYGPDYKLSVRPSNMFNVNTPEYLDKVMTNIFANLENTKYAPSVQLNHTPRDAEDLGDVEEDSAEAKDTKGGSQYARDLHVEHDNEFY

Measured: binding

Eaf3 (from UniProt Q12432 1-401)
binds: [1] | [2]

B1: Rco1 (natural protein, Saccharomyces cerevisiae, UniProt Q04779 1-684, looked up)
chain: T1 sequence
notes: Rco1, Saccharomyces cerevisiae; two copies (Rco1A, Rco1B) stand in the Rpd3S complex; also called Rco1A; Rco1B; source: High Five insect cells (baculovirus), co-expressed with the other Rpd3S subunits; purified as part of the complex (streptavidin column, Resource Q, gel filtration); not shown: double StrepII, C-terminal, kept
not listed: [2]
binds: all other assays above
